Among the data in paper PMC12667520, “SP3 and DEP1 Orchestrate Panicle Architecture by Jointly Regulating APO2 Expression in Rice” are binding values, retold here.

No constants are given. Whether binding was seen depends on the method and setting. Binding can be weak; no strength is given. Sequences can lack the tags named with a protein. For part of these data: In cells and extracts the contact can be indirect.

The target of experiment [1] is T1, FLAG-DEP1 (rice (Oryza sativa)) (UniProt Q67UU9).
T1 sequence: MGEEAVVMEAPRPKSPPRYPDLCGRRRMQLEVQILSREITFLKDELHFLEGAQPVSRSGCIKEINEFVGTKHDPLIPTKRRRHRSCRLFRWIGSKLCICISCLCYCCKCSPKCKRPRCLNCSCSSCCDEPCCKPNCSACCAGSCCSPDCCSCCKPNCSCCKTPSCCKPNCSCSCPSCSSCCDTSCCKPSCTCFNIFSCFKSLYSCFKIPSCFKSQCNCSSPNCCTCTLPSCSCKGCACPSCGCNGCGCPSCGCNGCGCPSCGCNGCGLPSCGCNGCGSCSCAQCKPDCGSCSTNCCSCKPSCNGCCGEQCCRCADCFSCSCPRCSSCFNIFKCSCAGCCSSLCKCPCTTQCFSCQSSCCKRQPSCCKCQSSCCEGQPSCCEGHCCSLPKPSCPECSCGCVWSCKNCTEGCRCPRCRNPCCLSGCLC
The experiment is described as follows: co-IP; 3xFLAG-DEP1 and 3xHA-SP3 co-expressed in rice protoplasts; extract in 50 mM Tris-HCl pH 7.5, 150 mM NaCl, 0.5% Triton X-100; FLAG beads 4 h at 4 °C; blot with anti-FLAG and anti-HA.

The target of experiment [2] is zinc finger DNA-binding domain of SP3 (two-hybrid construct) (rice (Oryza sativa ssp. japonica, Zhonghua 11)). The experiment is described as follows: two-hybrid; pairwise, Matchmaker system (Clontech), pGADT7 and pGBKT7, yeast AH109, test medium SD/-Leu-Trp-His-Ade.
Experiment [3] concerns the target SP3 in vector PVYCE (C-terminal YFP fragment fusion) (rice (Oryza sativa)). The experiment in a line: split reporter; BiFC, PVYCE and PVYNE YFP fragments, rice protoplasts, 12-16 h in the dark, confocal microscopy.
Experiment [4] concerns the target cLUC-SP3 (rice (Oryza sativa)). The experiment is described as follows: split reporter; firefly luciferase complementation imaging (LCI), nLUC and cLUC fusions co-expressed in N. benthamiana leaves, 25 °C for 48 h, 1 mM potassium luciferin.

Turning to HA-SP3 (rice (Oryza sativa)), the binding entry in experiment [1] is recorded as “binds”.

B1: DENSE AND ERECT PANICLE1 (DEP1), full length, Gal4 activation domain fusion (DEP1-AD) (protein, UniProt Q67UU9 1-426)
chain: T1 sequence
For the molecule B1, the binding entry in experiment [2] was “binds”.

B2: DEP1 in vector PVYNE (N-terminal YFP fragment fusion) (protein, UniProt Q67UU9 1-426)
chain: T1 sequence
Regarding B2, the binding result in experiment [3] was “binds”.

B3: nLUC-DEP1 (protein, UniProt Q67UU9 1-426)
chain: T1 sequence
For the molecule B3, the binding result in experiment [4] is listed as “binds”.

B4: DEP1^Gγ-like (domain or fragment, UniProt Q67UU9 24-107)
chain: GRRRMQLEVQILSREITFLKDELHFLEGAQPVSRSGCIKEINEFVGTKHDPLIPTKRRRHRSCRLFRWIGSKLCICISCLCYCC
In the case of B4, the binding entry in experiment [4] is reported as “no binding”.

B5: nLUC-OSH6 (protein, UniProt Q9FP29 1-301)
chain: MEDLYSIHPGISRVGGAASEASGVGVVVGGGGGSSSSDLTELMKAQIAGHPRYPTLLSAYIECRKVGAPPEVASLLKEIGRERRAGGGGGGAGQIGVDPELDEFMEAYCRVLVRYKEELSRPFDEAASFLSSIQTQLSNLCSGATSPPATTATHSDEMVGSSDEDQCSGETDMLDIGQEQSSRLADHELKEMLLKKYSGCLSRLRSEFLKKRKKGKLPKDARSALLEWWNTHYRWPYPTEEDKLRLAARTGLDPKQINNWFINQRKRHWKPSDGMRFALMEGVAGGSSGTTLYFDTGTIGP
On to B5, for which the binding entry in experiment [4] was “no binding”.
